Source: ChEMBL document CHEMBL3988442, “University of Dundee, Small-Polar-MMV Screening Library” (2021).

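Viability assay of Plasmodium falciparum sporozoites; the read-out is not stated. The concentration is filed as 10 mM, unlikely as a test dose, so the dose is not known. Direction is inferred from retests: higher values go with lower viability. Strong results were mostly tested again. Of about 34,000 compounds tested this way, about 280 (0.84%) reached 50% or more in at least one test.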

Values are the deposited “Percent Effect”, in %.
How 0% and 100% were set is not recorded. Most values in the screen are low, and negative values occur.
The compounds are a random part of those screened.
Two or more numbers in one place are separate tests of the same structure; such repeats can differ widely.

| SMILES | effect |
|---|---|
| `OCCN1CCC(c2cncc(-c3cccc(Cl)c3)n2)CC1` | -9.117% |
| `Cc1cc(NCCc2nc(C)c[nH]2)nc(-c2ccccc2O)n1` | -20.8% & -16.12% & -13.41% |
| `Cc1cc(C(=O)N2CC[C@@H](N(C)C)[C@@H]2Cc2ccccc2)no1.O=C(O)C(F)(F)F` | 0.9632% |
| `[H][C@@]12CN(CC3CCCCC3)CC[C@]1([H])N(C(C)=O)C[C@H]2c1ccsc1` | 3.641% |
| `CC(C)C(C(=O)N1CCCN(c2cccnn2)CC1)n1cncn1` (configuration not stated) | 5.289% |
| `[H][C@@]12CN(Cc3ccccc3OC)CC[C@]1([H])N(C(C)=O)C[C@H]2c1ccsc1` | 11.09% |
| `CN(Cc1cccc(F)c1)Cc1nc2c(cnn2C)c(=O)[nH]1` | 0.8079% |
| `Cc1ncsc1C(=O)NC1CCN(Cc2cccc3c2OCCO3)CC1` | 1.548% |
| `COc1ccccc1Oc1cncc(C2CCCN(CC(N)=O)C2)n1` (configuration not stated) | 9.629% |
| `[H][C@@]12CCN(c3nncs3)C[C@@]1([H])O[C@@H](C(=O)NCCc1ccncc1)C2` | -7.632% |
| `Cc1csc2ncc(-c3ccnc(N4CCC[C@@H]4CO)n3)c(=O)n12` | -2.286% |
| `COCc1nc(C(=O)N2CCCC2c2noc(C(C)C)n2)cs1` (configuration not stated) | -19.18% & -15.21% & -22.91% |
| `Cn1nccc1C(=O)N1Cc2cc(Cl)ccc2OC2(CCOCC2)C1` | -3.964% |
| `COc1ccc(NC(C)C(=O)N2CCN(Cc3ccccc3)CC2)cn1` (configuration not stated) | -6.73% |
| `[H][C@@]12CCN(c3ncccn3)C[C@]1(C(=O)NCc1ccccn1)CCO2` | -0.4052% |
| `O=C(Nc1ccncc1)C1=NN(c2ccccc2)C(=O)CN1` | 8.84% |
| `Cc1ccc(Cn2ccc(NS(C)(=O)=O)n2)cc1` | -16.36% |
| `[H][C@@]12CC(C)=CC[C@]1([H])CN(C(=O)c1ccc(-c3cc[nH]n3)cc1)C2` | -9.385% |
| `Cc1ccc(NC(=O)N2CC(C(=O)NC(C)C)C3(CCOCC3)C2)cc1` (configuration not stated) | -17.24% |
| `CCCS(=O)(=O)N1CCC(NC(=O)c2cc3ccccc3s2)CC1` | -7.598% |
| `O=C(CN1CCCS1(=O)=O)Nc1ccc(OC2CCCC2)c(Cl)c1` | -14.57% |
| `Cc1cc(C2CCCCN2C(=O)c2ccsc2)nc2nccn12` (configuration not stated) | -7.946% |
| `COc1cccc(CN2CCCCCC2c2cccs2)c1O` (configuration not stated) | -15.31% |
| `O=S(=O)(Nc1cnn(C2CCOCC2)c1)c1c(F)cccc1F` | -1.676% |
| `COC(=O)C1CCN(c2cncc(-n3nc(C)cc3C)n2)CC1` | -16.69% |
| `CC(C)(NCC(=O)NCCC#N)c1ccc2c(c1)OCCO2` | 2.72% |
| `CN(C)C(=O)N1CCC2(CC1)C(c1cnn(C)c1)CC(=O)N2C` (configuration not stated) | -11.77% |
| `COc1cccc(-c2ccc3nc(C4CCN(C(C)=O)CC4)nn3c2)c1` | 1.284% |
| `Cn1cc(-c2cnc(-c3ccnn3C)nc2)cc1C(=O)N1CCCC1` | 7.452% |
| `Cc1cccc(C2(CNC(=O)CCNS(C)(=O)=O)CCCC2)c1` | 4.194% |
| `CCn1ccnc1CN(C)C1CCCN(Cc2ccccc2F)C1` (configuration not stated) | -12.54% |
| `CC(C)c1cc(CN2CCC(N)CC2)on1` | 12.15% |
| `CCOc1ncccc1NC(=O)NC1CCN(C(=O)C2CC2)CC1` | 1.013% |
| `O=C(c1ccc(-n2cnnn2)cc1)N1CCCC(n2ccnc2)C1` (configuration not stated) | 18.32% |
| `CCN1CC2(CCN(CCOCCO)CC2)CC(c2ccccc2)C1=O` (configuration not stated) | 8.798% |
| `O=C(O)C(F)(F)F.[H][C@@]12CCN(Cc3ccc(OC)cc3)[C@]1([H])CC[C@H](C(=O)NCC1CC1)O2` | 8.158% |
| `Cc1c(C(=O)NCCC(C)C)nnn1-c1cccc2c1CCN(C)C2` | -6.127% |
| `CNS(=O)(=O)c1cccc(C(C)NCc2ccc(F)c(F)c2)c1` (configuration not stated) | -3.622% |
| `COCCNC(=O)c1ccc2ccc(N(C)CC3CC3)n2c1` | 7.762% |
| `CC(C)(O)C1CCN(C(=O)Nc2nc(-c3ccccc3)ns2)CC1` | -10.15% |
| `[H][C@@]12CCCCCN(C)[C@@]1([H])[C@H](c1ccccc1)CN2C(=O)c1ccccn1` | 13.48% |
| `Cc1ccc(CC2COCCN(S(C)(=O)=O)C2)nc1` (configuration not stated) | 13.87% |
| `CCn1ncc2c1CCCC2NCc1ccc2c(c1)CCO2` (configuration not stated) | 59.7% & 48.65% & 59.52% |
| `CN(Cc1noc(C2CC2)n1)C1CCN(CCS(C)(=O)=O)C1` (configuration not stated) | 10.48% |
| `O=C(NCC1CC1)C1=NOC2(CCN(S(=O)(=O)c3cccs3)C2)C1` (configuration not stated) | -4.586% |
| `CCN1CCOCC2(C1)CN(C(=O)c1c(C)noc1C)CCO2` (configuration not stated) | -0.5254% |
| `O=C(O)C(F)(F)F.[H][C@@]12CN(C(=O)c3ccoc3C)C[C@]1([H])OCCN2C(C)C` | -13.44% |
| `O=S(=O)(c1cn[nH]c1)N1CCCC1c1cc[nH]n1` (configuration not stated) | 3.397% |
| `[H][C@]12CCN(C(=O)CC3CC3)C[C@@]1([H])OCCN(Cc1csc(C)n1)C2` | 7.056% |
| `COc1c(CNCc2cccc(Cn3ccnc3)c2)c(C)nn1C` | 7.84% |
| `Cc1nc(CN(C)C2CCN(CC3CCCC3)C2)no1` (configuration not stated) | 3.488% |
| `O=C(NCc1ccc(N2CCCC2)nc1)N1CCc2sccc2C1` | -20.79% & -7.219% & -17.07% |
| `CC(=O)NCC(=O)N1CC[C@H](OCC2CC2)[C@@H]1Cc1cccnc1.O=C(O)C(F)(F)F` | -0.974% |

For reference, 5 entries once more:

{"smiles": "[H][C@@]12CCN(c3nncs3)C[C@@]1([H])O[C@@H](C(=O)NCCc1ccncc1)C2", "effect": -7.632}
{"smiles": "Cc1cc(C(=O)N2CC[C@@H](N(C)C)[C@@H]2Cc2ccccc2)no1.O=C(O)C(F)(F)F", "effect": 0.9632}
{"smiles": "CCCS(=O)(=O)N1CCC(NC(=O)c2cc3ccccc3s2)CC1", "effect": -7.598}
{"smiles": "Cc1ccc(Cn2ccc(NS(C)(=O)=O)n2)cc1", "effect": -16.36}
{"smiles": "OCCN1CCC(c2cncc(-c3cccc(Cl)c3)n2)CC1", "effect": -9.117}